{"source": "PubChem BioAssay AID1259254 (NCATS, 2017)", "screen": "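Gene knock-downs that lead to re-replication, shown by excess G2 DNA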 (primary screen)", "cells": "human HCT116 colorectal cancer cells", "reagents": "single siRNA against human genes", "time to read-out": "3 days", "measured": "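Imaged Hoechst DNA stain sorts each cell into a cycle phase by DNA amount; per plate, G2 fraction set to 0% for non-targeting and 100% for GMNN siRNA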", "reading the numbers": "G2 robust z-score and G2 cells, % of GMNN control: higher = more G2 cells, more excess DNA replication", "call rule": "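An siRNA counts as active if its G2 robust z-score lies at least 5 MADs above the screen median; here such calls match roughly 38% of GMNN control or more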", "note": "In all, the deposit lists about 59,000 reagents; this is a random part of them. About 1,550 of them (2.6%) count as active. 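G2 share is only a proxy for re-replication; each gene was hit by three separate siRNAs, and active genes were retested.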 Reagents against one gene are numbered here. Further read-outs or replicates are left out here. The record does not give: the amount of reagent."}
{"target": "SLMAP", "reagent": 1, "G2 robust z-score": 0.213, "G2 cells, % of GMNN control": 4.47, "outcome": "inactive"}
{"target": "SLMAP", "reagent": 2, "G2 robust z-score": -0.0989, "G2 cells, % of GMNN control": 2.27, "outcome": "inactive"}
{"target": "SLMAP", "reagent": 3, "G2 robust z-score": -0.55, "G2 cells, % of GMNN control": -0.905, "outcome": "inactive"}
{"target": "GPHB5", "reagent": 1, "G2 robust z-score": 4.39, "G2 cells, % of GMNN control": 33.8, "outcome": "inactive"}
{"target": "GPHB5", "reagent": 2, "G2 robust z-score": 2.96, "G2 cells, % of GMNN control": 23.8, "outcome": "inactive"}
{"target": "GPHB5", "reagent": 3, "G2 robust z-score": -0.146, "G2 cells, % of GMNN control": 1.94, "outcome": "inactive"}
{"target": "DNAJC14", "reagent": 1, "G2 robust z-score": -0.0731, "G2 cells, % of GMNN control": 2.45, "outcome": "inactive"}
{"target": "DNAJC14", "reagent": 2, "G2 robust z-score": -0.496, "G2 cells, % of GMNN control": -0.523, "outcome": "inactive"}
{"target": "DNAJC14", "reagent": 3, "G2 robust z-score": 1.89, "G2 cells, % of GMNN control": 16.3, "outcome": "inactive"}
{"target": "CCDC62", "reagent": 1, "G2 robust z-score": 2.27, "G2 cells, % of GMNN control": 18.9, "outcome": "inactive"}
{"target": "CCDC62", "reagent": 2, "G2 robust z-score": -0.515, "G2 cells, % of GMNN control": -0.653, "outcome": "inactive"}
{"target": "CCDC62", "reagent": 3, "G2 robust z-score": -0.56, "G2 cells, % of GMNN control": -0.97, "outcome": "inactive"}
{"target": "NCAPH2", "reagent": 1, "G2 robust z-score": 0.964, "G2 cells, % of GMNN control": 9.75, "outcome": "inactive"}
{"target": "NCAPH2", "reagent": 2, "G2 robust z-score": -0.0535, "G2 cells, % of GMNN control": 2.59, "outcome": "inactive"}
{"target": "NCAPH2", "reagent": 3, "G2 robust z-score": -0.671, "G2 cells, % of GMNN control": -1.75, "outcome": "inactive"}
{"target": "MALL", "reagent": 1, "G2 robust z-score": -0.684, "G2 cells, % of GMNN control": -1.85, "outcome": "inactive"}
{"target": "MALL", "reagent": 2, "G2 robust z-score": 0.374, "G2 cells, % of GMNN control": 5.6, "outcome": "inactive"}
{"target": "MALL", "reagent": 3, "G2 robust z-score": 3.69, "G2 cells, % of GMNN control": 28.9, "outcome": "inactive"}
{"target": "NUGGC", "reagent": 1, "G2 robust z-score": 0.478, "G2 cells, % of GMNN control": 6.33, "outcome": "inactive"}
{"target": "NUGGC", "reagent": 2, "G2 robust z-score": 1.44, "G2 cells, % of GMNN control": 13.1, "outcome": "inactive"}
{"target": "NUGGC", "reagent": 3, "G2 robust z-score": 0.573, "G2 cells, % of GMNN control": 7, "outcome": "inactive"}
{"target": "STX1B", "reagent": 1, "G2 robust z-score": -0.573, "G2 cells, % of GMNN control": -1.07, "outcome": "inactive"}
{"target": "STX1B", "reagent": 2, "G2 robust z-score": -0.038, "G2 cells, % of GMNN control": 2.7, "outcome": "inactive"}
{"target": "STX1B", "reagent": 3, "G2 robust z-score": -0.683, "G2 cells, % of GMNN control": -1.84, "outcome": "inactive"}
